Entries after “also recorded” stand apart in the source; their conditions may differ. Where two headings read alike, the source gives them in different places. Part of at least one peptide drawing is inferred or uncertain, most often the ends. Residues, ends and D or L forms follow the SMILES beside them.
Experiments:
E. coli Dh5α persisters = experiment: persister cell plate killing assay; format: cell-based, Escherichia coli; settings: 1.5 h
Procedure: Procedure for preparing S. aureus SA113 and E. coli Dh5α persister cells were based on previous protocols. Cells from freshly streaked agar plates were inoculated in 1 mL TSB and incubated 16 h at 37° C. in a shaker incubator to obtain stationary phase cultures. Non-persister cells were eliminated by adding ampicillin to a final concentration of 100 μg/mL, followed by 3 h incubation at 37° C.
E. coli cells were pelleted (5000 rpm for 5 min), washed in M9 minimal media and resuspended in M9 minimal media to a final bacteria stock solution of 5×10^7 CFU/mL. 20 μL E. coli suspension was introduced into 180 μL M9 media containing various concentrations of antibiotic (Pentobra, tobramycin) in 96 well plates for a total of 10^6 CFU/well. The plates were sealed with parafilm, loaded onto microplate shakers and placed in a 37° C. incubator for 1.5 h. After incubation, 10-fold serial dilutions were made with M9 media. Half of each dilution (100 μL) was spotted onto LB agar plates and incubated overnight at 37° C. to yield visible colonies. The E. coli persister assays were performed in quadruplicate.
The bactericidal effects of Pentobra against persistent bacteria were investigated with plate killing assays. Model Gram positive (Staphylococcus aureus S113) and Gram negative (Escherichia coli Dh5α) bacteria prepared in a persistent state were incubated for 1.5 h with varying concentrations of Pentobra or tobramycin (FIGS. 5A-5B). […] At higher concentrations the differences between Pentobra and tobramycin became even greater, with 6.4 μM and 25.7 μM Pentobra producing four-log and six-log reduction in cell counts, respectively.

E. coli ML35 = E. coli ML35 cell permeabilization assay (ONPG→ONP conversion); format: cell-based
Procedure: E. coli ML35 [lacZ-(Con) ΔlacY] cannot take up the lactose mimic ONPG unless cell membrane integrity is compromised. Upon membrane permeabilization ONPG can diffuse into the bacterial cell cytoplasm where it is hydrolyzed by β-galactosidase into galactose and ONP. Since ONP absorbs at 400 nm, the permeabilization kinetics of membrane-disrupting agents can be monitored by OD400 absorbance measurement. Methodology here was very similar to previous studies. Log-phase E. coli cells were grown as described above, washed and resuspended in 10 mM Tris supplemented with 0.01 volume (1% vol/vol) TSB at pH 7.4 (Tris-TSB). In triplicate, bacteria (5×10^6 cells/well) were exposed to various concentrations of antibiotic (Pentobra, tobramycin, Pen peptide) in the presence of 2.5 mM ONPG for 90 min at 37° C. The kinetics of ONPG hydrolysis were measured by determining the absorbance at 400 nm using a plate reader spectrophotometer.
To characterize the membrane activity of Pentobra on bacteria, its permeabilization kinetics were monitored on live cells by conducting an enzymatic assay for the conversion of ortho-nitrophenyl β-D-galactopyranoside (ONPG) to ortho-nitrophenol (ONP) on the E. coli strain ML35. E. coli ML35 [lacZ-(Con) ΔlacY] constitutively expresses β-galactosidase (β-gal) but lacks the lactose permease necessary for uptake of the lactose analogue ONPG. ONPG internalization cannot occur without a breach in the plasma membrane. Inner membrane permeabilization of E. coli ML35 cells allows diffusion of ONPG into cells where β-gal can convert it into ONP, which absorbs at 405 nm.

Acinetobacter (AcB) = format: cell-based; settings: isolate AcB, PM1434
From the text: (§1) Pentobra was screened against a broad panel of microbial pathogens, including strains of E. coli, MRSA, Klebsiella (Kleb), Acinetobacter (AcB), Vancomycin-Sensitive Enterococci (VSE) and Vancomycin-Resistant Enterococci (VRE), and specifically including E. faecalis samples. […] The experimenter reported the minimum inhibitory concentration (MIC) in mass units per unit volume (μg/mL) for each compound, and MIC data were converted into molar concentrations (μM) due to the large difference between the molecular weight of tobramycin (467.5 g/mol) and Pentobra (2277 g/mol).

[1] = tested on: Vancomycin-Resistant Enterococci (VRE); format: cell-based
From the text: as §1

E. coli [2] = format: cell-based
From the text: as §1

MRSA = format: cell-based; settings: isolate MRSA, F2806774
From the text: as §1

Klebsiella (Kleb) = format: cell-based; settings: isolate Kleb, W6921701-1
From the text: as §1

[3] = tested on: Vancomycin-Sensitive Enterococci (VSE); format: cell-based
From the text: as §1

E. coli [4] = experiment: plate killing assay on actively growing (log phase) cells; format: cell-based
S. aureus = experiment: as above; format: cell-based

CC[C@H](C)[C@H](NC(=O)[C@H](CCCCN)NC(=O)[C@@H](NC(=O)[C@H](CCC(N)=O)NC(=O)[C@H](CCCNC(=N)N)NC(=O)CCC(=O)OC[C@H]1O[C@H](O[C@@H]2[C@@H](O)[C@H](O[C@H]3O[C@H](CN)[C@@H](O)C[C@H]3N)[C@@H](N)C[C@H]2N)[C@H](O)[C@@H](N)[C@@H]1O)[C@@H](C)CC)C(=O)N[C@@H](Cc1c[nH]c2ccccc12)C(=O)N[C@@H](Cc1ccccc1)C(=O)N[C@@H](CCC(N)=O)C(=O)N[C@@H](CC(N)=O)C(=O)N[C@@H](CCCNC(=N)N)C(=O)N[C@@H](CCCNC(=N)N)C(=O)N[C@@H](Cc1c[nH]c2ccccc12)C(=O)O [Pentobra] (HELM PEPTIDE1{[NC[C@H]1O[C@H](O[C@H]2[C@H](O)[C@@H](O[C@H]3O[C@H](COC(=O)CCC(=O)[*:2])[C@@H](O)[C@H](N)[C@H]3O)[C@H](N)C[C@@H]2N)[C@H](N)C[C@@H]1O].R.Q.I.K.I.W.F.Q.N.R.R.W}$$$$V2.0)
reduction in CFU (E. coli Dh5α persisters; 25.7 μM): 1.8 log | CFU reduction (E. coli Dh5α persisters; 51.3 μM, highest tested concentration): four | killing activity against persister cells (E. coli Dh5α persisters; entire range of tested concentrations): dose dependent bactericidal activity | colonies from ML35 E. coli cells plated following the assay (E. coli ML35; 22 μM): no colonies were observed | inner membrane permeabilization (400 nm absorbance, ONPG→ONP) (E. coli ML35; 90 min, 37° C.): permeabilized E. coli membranes in a dose-dependent manner; also recorded: robust, rapid, dose-dependent permeabilization | MICtob/MICpentob (Acinetobacter (AcB)): 4.87 | MIC for Pentobra lower than that for tobramycin ([1]; for many samples of the panel): more than 19 times | MICtob/MICpentob ([1]; isolate 24670, VRE^? (second entry)): >19.5 | MICtob/MICpentob ([1]; isolate H6926031, VRE*): 4.87 | MICtob/MICpentob ([1]; isolate M6865034, VRE): >19.5 | MICtob/MICpentob ([1]; isolate S3899836, VRE^? (second entry)): >19.5 | MICtob/MICpentob ([1]; isolate VRE, 24670): >19.5 | MICtob/MICpentob ([1]; isolate VRE, S3899836): >19.5 | MICtob/MICpentob (E. coli [2]; isolate ATCC 25922, Ecoli (second entry)): 0.609 | MICtob/MICpentob (E. coli [2]; isolate ATCC Ecoli, 25922 (first entry)): 1.22 | MICtob/MICpentob (E. coli [2]; isolate Ecoli,YD461): 4.87 | MICtob/MICpentob (MRSA): >4.87 | MICtob/MICpentob (Klebsiella (Kleb)): 9.74 | MICtob/MICpentob ([3]; isolate S4895552, VSE, LZD-R): >19.5 | MICtob/MICpentob ([3]; isolate W7171143,VSE): 1.22 | MICtob/MICpentob ([3]; isolate W7214342,VSE): >9.74 | MICtob/MICpentob ([3]; isolate X4540299, VSE): 2.44 | bactericidal activity against log phase bacteria (E. coli [4]; 1 h): single micromolar antibiotic concentrations were bactericidal | potency compared to tobramycin (E. coli [4]; log phase): ≤ 4 factor | bactericidal activity against log phase bacteria (S. aureus; 1 h): single micromolar antibiotic concentrations were bactericidal | potency compared to tobramycin (S. aureus; log phase): ≤ 4 factor
